Data from patent US20200199537A1, “LIVER ORGANOID COMPOSITIONS AND METHODS OF MAKING AND USING SAME” (Children's Hospital Medical Center, priority 2017, published 2020).

System: human liver organoids

CCCCc1oc2ccccc2c1C(=O)c1cc(I)c(OCCN(CC)CC)c(I)c1 [amiodarone]
toxicity to organoids / viability within the tested dose range: significantly toxic
